Reference: PMC2679207, “GLS-1, a Novel P Granule Component, Modulates a Network of Conserved RNA Regulators to Influence Germ Cell Fate Decisions” (PLoS Genetics, 2009)

What was measured:
[1] = target: T1, GLD-3L (yeast two-hybrid fusion) (C. elegans) (UniProt Q95ZK7); test: two-hybrid; yeast; protein truncations; strength rated by the blue colour of a beta-galactosidase substrate (filter assay)
T1 sequence: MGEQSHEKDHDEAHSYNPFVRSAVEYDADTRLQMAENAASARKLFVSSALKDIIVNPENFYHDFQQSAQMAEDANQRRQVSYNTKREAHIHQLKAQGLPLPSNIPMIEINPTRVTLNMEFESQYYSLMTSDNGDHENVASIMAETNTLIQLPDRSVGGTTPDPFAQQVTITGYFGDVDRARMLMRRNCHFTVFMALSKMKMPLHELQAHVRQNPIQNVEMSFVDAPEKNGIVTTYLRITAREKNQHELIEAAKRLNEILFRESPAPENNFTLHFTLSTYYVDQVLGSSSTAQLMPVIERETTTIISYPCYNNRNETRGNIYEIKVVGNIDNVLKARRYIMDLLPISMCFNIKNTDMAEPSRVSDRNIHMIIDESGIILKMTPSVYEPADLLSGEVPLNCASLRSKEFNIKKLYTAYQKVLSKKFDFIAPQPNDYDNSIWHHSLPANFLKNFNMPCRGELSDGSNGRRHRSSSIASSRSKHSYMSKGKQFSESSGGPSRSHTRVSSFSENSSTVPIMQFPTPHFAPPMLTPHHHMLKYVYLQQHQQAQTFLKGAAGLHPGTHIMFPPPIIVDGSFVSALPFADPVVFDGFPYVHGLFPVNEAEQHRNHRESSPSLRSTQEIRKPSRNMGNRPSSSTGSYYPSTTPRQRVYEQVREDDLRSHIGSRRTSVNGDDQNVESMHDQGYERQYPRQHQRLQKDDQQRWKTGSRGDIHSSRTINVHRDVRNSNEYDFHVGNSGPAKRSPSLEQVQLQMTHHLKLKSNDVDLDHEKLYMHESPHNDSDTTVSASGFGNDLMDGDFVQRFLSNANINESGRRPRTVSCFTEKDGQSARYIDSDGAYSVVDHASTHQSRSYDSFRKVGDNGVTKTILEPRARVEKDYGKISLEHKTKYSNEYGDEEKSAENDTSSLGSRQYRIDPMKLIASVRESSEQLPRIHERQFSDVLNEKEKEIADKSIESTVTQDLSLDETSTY

[2] = target: GST fusion of the C-terminal half of GLD-3L (C. elegans); test: pull-down; GST pull-down; purified full-length GLS-1^6xHis and GLD-3 fragments fused to GST; GLS-1 visualized with anti-His antibodies; both purified
[3] = target: ceBCC-1 (yeast two-hybrid fusion) (C. elegans); test: two-hybrid; yeast; protein pairs fused to the LexA DNA binding domain and the Gal4 transcriptional activation domain; beta-galactosidase activities in arbitrary units
[4] = target: GLD-3L N-terminal region covering all KH domains (yeast two-hybrid fusion) (C. elegans); test: two-hybrid; yeast; protein truncations; strength rated by the blue colour of a beta-galactosidase substrate (filter assay)

GLS-1 C-terminal region of 160 amino acids (yeast two-hybrid fusion) (C. elegans) (domain or fragment)
binding [1]: binds

B1: GLS-1(FL) with C-terminal His tag, from insect cells (protein, UniProt Q8I4M5 26-1052)
chain: LTLQEKRKKSRLTGILMKSMANKKNHQQKKSTDGSTMNGNNATATAAATTQNSSQIGQNSNSSHSVTNDNTSSNNASTSTSSITSTTTTTTTVPSSQQSQSQNQYSHQRLSSTSSTSQQTGISKFPAKKAGHNELEKTSNTANSQSGAFKGTTNKDRPKEKEKNTHSGNRQSQVNHNHHHSNHVSGNQQNRKNKNRDHSNQSYRGGYTHNHNNYHSLENAKSSGFLSNSSLSSAGQISASSAPPVSTTPTAIPIFQESKIVQTDPPVEEAKKKKEKPKIKRDEEPMPYKSTDPKNMDSVMAFKEHDEWDKVEFMCELVSFLSPTDLRLLGNCIEGSVRCYNNQMRPVEKTSNCSDPTAGLPQFVCSPPPPPQQVYYFPGIADAALYQTRNAVNSVFVQQHPPGLPPLLGGMQNIMYPPDANFHHSTSCTTPSSSVSVANKDVNNVPVVLSSSVNGISNNIPSDRQQLDSKPNTARGSSGNINQSNTTSPEPEPGSNHISTTAANPAHPTSVTVPQSVPPVPQEPELFLKSVLDLTSYIYTLMAVCSSTNRKSAAKISDYVQNVILREKSQILERIPDELDKITVLQEIGKIVAAMTHHPAITLDDKMKYAALRDGLRAQIETLFRQYYTTQKQLEQSNLVVPSSQAVGDENDTDSDHESEEEFEPLSGVMGSRFESNPVQPSPSVPGTFFIIRFIGRQIEKNDNLFSLEIHWSDGDRTFAQRSRDQLKALQHRLLDEFGQQRSEKYLHQGCTTSYSSFDDDNKKLSASTSTMETFAPNGERIVPRLARDATPAQYVQYINELSDLPARMMLSAVICEEFNGTRAKTEDLLQETREASDGLIYSRWKNPRAKSPVRYFKRNATGSIDPIELPVNMQPFLYSNIPQTQVQTLFPSCSNCGGPHAPKHCEKQTLLSKKGDHRTRSDGEGSQQNGGTSSSNSYAPIHANLPHAVYIENPQAMLGSNHFNHHQQQHIIQNTIFHNGGQFRANGTYEPQIPIAYYHAQGTVQNSNNTGGVNGNSGGGNQNSNF
binding [2]: binds

B2: GLS-1 (yeast two-hybrid fusion) (protein, UniProt Q8I4M5 1-1052)
chain: MRCLISYLFHSFLIFLKFIRSDVTALTLQEKRKKSRLTGILMKSMANKKNHQQKKSTDGSTMNGNNATATAAATTQNSSQIGQNSNSSHSVTNDNTSSNNASTSTSSITSTTTTTTTVPSSQQSQSQNQYSHQRLSSTSSTSQQTGISKFPAKKAGHNELEKTSNTANSQSGAFKGTTNKDRPKEKEKNTHSGNRQSQVNHNHHHSNHVSGNQQNRKNKNRDHSNQSYRGGYTHNHNNYHSLENAKSSGFLSNSSLSSAGQISASSAPPVSTTPTAIPIFQESKIVQTDPPVEEAKKKKEKPKIKRDEEPMPYKSTDPKNMDSVMAFKEHDEWDKVEFMCELVSFLSPTDLRLLGNCIEGSVRCYNNQMRPVEKTSNCSDPTAGLPQFVCSPPPPPQQVYYFPGIADAALYQTRNAVNSVFVQQHPPGLPPLLGGMQNIMYPPDANFHHSTSCTTPSSSVSVANKDVNNVPVVLSSSVNGISNNIPSDRQQLDSKPNTARGSSGNINQSNTTSPEPEPGSNHISTTAANPAHPTSVTVPQSVPPVPQEPELFLKSVLDLTSYIYTLMAVCSSTNRKSAAKISDYVQNVILREKSQILERIPDELDKITVLQEIGKIVAAMTHHPAITLDDKMKYAALRDGLRAQIETLFRQYYTTQKQLEQSNLVVPSSQAVGDENDTDSDHESEEEFEPLSGVMGSRFESNPVQPSPSVPGTFFIIRFIGRQIEKNDNLFSLEIHWSDGDRTFAQRSRDQLKALQHRLLDEFGQQRSEKYLHQGCTTSYSSFDDDNKKLSASTSTMETFAPNGERIVPRLARDATPAQYVQYINELSDLPARMMLSAVICEEFNGTRAKTEDLLQETREASDGLIYSRWKNPRAKSPVRYFKRNATGSIDPIELPVNMQPFLYSNIPQTQVQTLFPSCSNCGGPHAPKHCEKQTLLSKKGDHRTRSDGEGSQQNGGTSSSNSYAPIHANLPHAVYIENPQAMLGSNHFNHHQQQHIIQNTIFHNGGQFRANGTYEPQIPIAYYHAQGTVQNSNNTGGVNGNSGGGNQNSNF
binding [3]: no binding
binding [4]: binds

Results are given in words; binding and its absence hold for the method and conditions named. For some of these results: Binding calls can cover weak binding; strength is not graded here. Where a sequence is shown, tags or fusion partners need not be part of it.
